A word on the IC50: it is the concentration at which inhibition is half-maximal.

This assay concerns MCF-7. The experiment in a line: In vitro anti-proliferative activity, MTT assay, MCF-7. Type of assay: cell-based. The note with it: Homo sapiens, MCF7, 24 h, read-out: IC50 MCF-7. The method, then:
Colchicine was used as a positive control. […] The cells were obtained from ATCC (American Type Culture Collection) via the Holding company for biological products and vaccines (VACSERA) (Cairo, Egypt). The anti-cancer activity was measured quantitatively as follows: Into a medium of RPMI-1640 with 10% fetal bovine serum, the cell lines were cultured. Then, penicillin (100 units per mL) and streptomycin (100 μg mL^−1) were added at 37 °C in a 5% CO2 incubator. […] After incubation period, the cell lines were treated with different concentration of the synthesized compounds and incubated for 24 h. After treatment by 24 h, 20 μL of MTT solution (5 mg mL^−1) was added and incubated for 4 h. Dimethyl sulfoxide (100 μL) was added into each well to dissolve the formed purple formazan. The colorimetric assay was measured and recorded at absorbance of 570 nm using a plate reader (EXL 800, USA). The relative cell viability in percentage was calculated as (A570 of treated samples/A570 of untreated sample) X 100.

As to `COc1cc2c(c(OC)c1OC)-c1ccc(OC)c(=O)cc1[C@@H](NC(C)=O)CC2` [Colchicine, reference compound], the IC50 is 10.5 ± 0.3 µM.

The record behind these values is publication PMC9048505 (RSC Advances, 2020).
